{"source": "patent US20220339110A1", "about": "“FAST CONSOLIDATING COMPOUNDS” (Universität Innsbruck, priority 2019, published 2022)", "experiment": "Disintegration time of lactose tablets", "type": "physicochemical", "settings": "tablets produced at compaction pressure of 10 kN", "from_the_text": "Mercury porosimetry of the 3D-powder printed tablet indicated a porosity of 63.8% and an average pore radius of 48 Micron. […] Also the tablets produced by the molding process show porosities around 50% whereas those of the pressed tablets are much smaller. The high porosity guarantees a fast intrusion of fluids into the tablet and is thus an important prerequisite of a fast disintegration.", "note": "Some entries share one result that the patent states for a list of compounds."}
{"smiles": "O.OC[C@H]1O[C@@H](O[C@H]2[C@H](O)[C@@H](O)[C@@H](O)O[C@@H]2CO)[C@H](O)[C@@H](O)[C@H]1O", "note": "[Spherolac 100 MH, α-Lactose monohydrate]", "values": [{"measurement": "disintegration time", "result": "0.5 to 1", "unit": "min"}]}
